# Results from the supplement of paper PMC12009310.
# Counter-ions that a name gives are not always drawn. ± gives the standard deviation of the averaged measurements. This is one part of the list. Plates or batches differ in their baseline, so values are only roughly comparable.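 The cells are a mouse kidney inner medullary collecting duct line, silenced either for the ciliary gene Rpgrip1l or with a non-targeting control siRNA.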
# Tested on: mIMCD3
# Assay: robust z score of cell number vs plate controls; higher = more cells (less cytotoxic)
# Details: 10 µM; 48 h; siRNA: siRpgrip1l
row,SMILES,robust z score of cell number
1,COc1ccc2[nH]c(I)c(CCNC(C)=O)c2c1 [2-Iodomelatonin],-3.01 ± 2.8
2,O=C1C(SCCO)=C(SCCO)C(=O)c2ccccc21,-192 ± 220
3,Cn1ccc2cc(NC(=O)Nc3cccnc3)ccc21,-35.5 ± 26
4,COC(=O)C1=C(C)NC(C)=C(C(=O)OC(C)C)C1c1cccc2nonc12 (stereo not drawn) [Isradipine],-16 ± 9.7
5,CS(=O)(=O)CCNCc1nc(-c2ccc3ncnc(Nc4ccc(OCc5cccc(F)c5)c(Cl)c4)c3c2)cs1,-102 ± 78
6,O=C(Nc1ccccc1)N[C@@H]1C[C@@H](C(=O)O)Nc2cc(Cl)cc(Cl)c21,-1.78 ± 1.6
7,COc1ccc2c(c1)c(CC(=O)O)c(C)n2C(=O)c1ccc(Cl)cc1 [Indomethacin],-8.19 ± 4.3
8,CNc1cc(OC)c(C(=O)NC2CCN(Cc3ccccc3)C2C)cc1Cl (stereo not drawn) [Nemonapride],-35.4 ± 31
9,Nc1nc2c(ncn2COCCO)c(=O)[nH]1 [Acyclovir],-7.67 ± 3.4
10,Cc1sc(N)c(C(=O)c2cccc(C(F)(F)F)c2)c1C,-102 ± 85
11,CC(C)n1nnc2cc(C(=O)O)ccc21,-1.07 ± 0.9
12,CC(=Cc1ccc(C(=O)O)cc1)c1ccc2c(c1)C(C)(C)CCC2(C)C,-39.7 ± 12
13,COc1cc(/C=C(\C#N)C(N)=O)cc(CSc2nc3ccccc3s2)c1O,-36.1 ± 34
14,CC(C)(C)NC[C@H](O)COc1nsnc1N1CCOCC1 [(S)-Timolol maleate],1.15 ± 0.58
15,Nc1nnc(Sc2ncc([N+](=O)[O-])s2)s1,-43.8 ± 57
16,Cc1ccccc1C(=O)c1ccc(Nc2ccc(Br)cc2N)cc1Cl,-31.6 ± 30
17,COc1ccc(CCN(C)CCc2ccc(OC)c(OC)c2)cc1OC [YS-035 hydrochloride],7.53 ± 14
18,C=C1/C(=C\C=C2/CCC[C@]3(C)[C@@H]([C@H](C)/C=C/[C@@H](O)C4CC4)CC[C@@H]23)C[C@@H](O)C[C@@H]1O [Calcipotriol],-30.2 ± 28
19,CC(=N)NCCCC[C@H](N)C(=O)O [L-NIL hydrochloride],-7.08 ± 7.4

row,SMILES,robust z score of cell number
1,Clc1cccc(Nc2nnc(-c3ccccc3)c3ccccc23)c1,-119 ± 97
2,CCC(C)N(C)C(=O)c1cc2ccccc2c(-c2ccccc2Cl)n1 (stereo not drawn),-8.78 ± 7
3,CCOc1ccccc1OC(c1ccccc1)C1CNCCO1 (stereo not drawn) [Reboxetine mesylate],1.29 ± 2.4
4,Cn1cccc1/C=C1\C(=O)NC(=O)c2ccccc21,-1.01 ± 4.3
5,N=C(N)N/N=C/c1c(Cl)cccc1Cl [Guanabenz acetate],-5.01 ± 0.8
6,COc1ccc(-c2nc(-c3ccc(-c4cccc(Cl)c4)o3)[nH]c2-c2ccc(OC)cc2)cc1 [Neurodazine],-50.1 ± 53
7,COc1cc2c(cc1OC)-c1c/c(=N\c3c(C)cc(C)cc3C)n(C)c(=O)n1CC2 [Trequinsin hydrochloride],-22.5 ± 9.5
8,O=C(c1ccc(Nc2nccc(-c3cc4ccccc4s3)n2)cc1)N1CCC(N2CCCC2)CC1,-32.7 ± 10
9,CC(=O)NNC(=O)N1Cc2ccccc2Oc2ccc(Cl)cc21,-8 ± 3.9
10,NS(=O)(=O)c1cc2c(cc1Cl)NC(C1CC3C=CC1C3)NS2(=O)=O (stereo not drawn) [Cyclothiazide],-1.47 ± 1.9
11,Cc1ccc(NC(=O)C(C)C)cc1C1CCN(Cc2ccc(Oc3ccc(F)c(F)c3)cc2)CC1,-31 ± 29
12,O=c1[nH]c2cc(C(F)(F)F)c(N3CCOCC3)cc2n(CP(=O)(O)O)c1=O,-4.4 ± 3.7
13,CC1(C)CC(=O)C(C2C3=C(CC(C)(C)CC3=O)Oc3ccccc32)C(=O)C1 (stereo not drawn),-28.8 ± 44
14,Oc1ccc(/C=C/c2cc(O)cc(O)c2)cc1 [Resveratrol],-283 ± 200
15,CN1c2cc3c(cc2N=C(c2ccc(C(=O)O)cc2)c2ccccc21)C(C)(C)CCC3(C)C,-40.3 ± 26
16,Cc1cccc(C#Cc2ccccc2)n1 [MPEP hydrochloride],-3 ± 0.11
17,COC(=O)c1c(-c2cc(OC)c(OC)c(OC)c2)c2ccnc(OCc3ncccn3)c2c(=O)n1Cc1ccnc(C)c1 [T 0156 hydrochloride],-8.14 ± 4.5
18,COc1ccc(Cl)cc1C(=O)NCCc1ccc(S(=O)(=O)NC(=O)NC2CCCCC2)cc1 [Glibenclamide],-3.31 ± 0.98
19,CC(O)(C(=O)Nc1ccc(S(=O)(=O)c2ccccc2)cc1)C(F)(F)F (stereo not drawn),-13.2 ± 2.9

# Sorted by count of non-hydrogen atoms (falling): part of the list above.
row,SMILES,robust z score of cell number
14,CC(C)(C)NC[C@H](O)COc1nsnc1N1CCOCC1 [(S)-Timolol maleate],1.15 ± 0.58
10,Cc1sc(N)c(C(=O)c2cccc(C(F)(F)F)c2)c1C,-102 ± 85
14,Oc1ccc(/C=C/c2cc(O)cc(O)c2)cc1 [Resveratrol],-283 ± 200
